The list shows a part of the results.
Legend:
Experiment in all cases: log2 fold change, soluble protein after heating vs DMSO (PISA); higher = thermal stabilisation; K562 lysate, 10 uM; active = over 0.2 and 3.5 SD of the protein, either way, in both replicates (recomputed)
nilotinib = compound: Cc1cn(-c2cc(NC(=O)c3ccc(C)c(Nc4nccc(-c5cccnc5)n4)c3)cc(C(F)(F)F)c2)cn1 [nilotinib]
Procedure, shortened: (§1)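 Pellets of K562 cells were dounce-homogenised in PBS pH 7.4 with 1 mM MgCl2, and the crude extract was held at 1 mg/mL protein for a 30 min treatment with 10 μM compound. Aliquots were heated for 3 min over 48°C-58°C and pooled before NP-40 was added to 0.5% at 4°C. The supernatant from 21,000xg for 90 min was quantified by TMTpro 16plex LC-MS/MS with channel sums equalised. Values are reported from duplicates as log-two fold change in thermal stability relative to solvent controls.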

By UniProt entry, the sequences of proteins in these tests, tags left out. Where a name states a change or a piece, a line headed by the entry shows the natural chain unless it says otherwise.
UniProt P40763, whole entry, looked up: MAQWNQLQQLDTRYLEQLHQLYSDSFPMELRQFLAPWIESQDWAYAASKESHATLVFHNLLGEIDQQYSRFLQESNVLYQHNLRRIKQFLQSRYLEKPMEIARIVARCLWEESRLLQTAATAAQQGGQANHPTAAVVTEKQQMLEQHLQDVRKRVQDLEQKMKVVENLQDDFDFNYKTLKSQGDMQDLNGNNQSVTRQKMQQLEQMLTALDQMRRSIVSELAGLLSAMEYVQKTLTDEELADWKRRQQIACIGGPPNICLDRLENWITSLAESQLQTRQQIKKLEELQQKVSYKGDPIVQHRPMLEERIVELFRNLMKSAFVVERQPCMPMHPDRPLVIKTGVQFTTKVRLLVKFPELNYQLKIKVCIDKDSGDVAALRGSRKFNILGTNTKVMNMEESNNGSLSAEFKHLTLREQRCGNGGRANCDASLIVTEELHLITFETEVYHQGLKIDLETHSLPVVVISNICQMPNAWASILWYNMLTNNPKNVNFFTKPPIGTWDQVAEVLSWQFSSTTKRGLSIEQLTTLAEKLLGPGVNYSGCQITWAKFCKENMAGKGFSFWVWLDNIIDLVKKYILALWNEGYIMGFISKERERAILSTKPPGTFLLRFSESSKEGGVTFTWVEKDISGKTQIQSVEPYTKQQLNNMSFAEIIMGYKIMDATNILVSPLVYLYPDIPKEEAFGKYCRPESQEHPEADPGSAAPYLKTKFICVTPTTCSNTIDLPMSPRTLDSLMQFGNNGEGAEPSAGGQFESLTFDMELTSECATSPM
UniProt Q13243: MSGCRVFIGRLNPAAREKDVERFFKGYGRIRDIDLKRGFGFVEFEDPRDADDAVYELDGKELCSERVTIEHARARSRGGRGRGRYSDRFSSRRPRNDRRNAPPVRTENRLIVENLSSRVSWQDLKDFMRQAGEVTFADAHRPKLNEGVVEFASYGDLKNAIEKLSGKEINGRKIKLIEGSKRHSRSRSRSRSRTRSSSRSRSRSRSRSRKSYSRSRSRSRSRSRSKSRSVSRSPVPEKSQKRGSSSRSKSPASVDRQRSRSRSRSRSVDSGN
UniProt Q14534: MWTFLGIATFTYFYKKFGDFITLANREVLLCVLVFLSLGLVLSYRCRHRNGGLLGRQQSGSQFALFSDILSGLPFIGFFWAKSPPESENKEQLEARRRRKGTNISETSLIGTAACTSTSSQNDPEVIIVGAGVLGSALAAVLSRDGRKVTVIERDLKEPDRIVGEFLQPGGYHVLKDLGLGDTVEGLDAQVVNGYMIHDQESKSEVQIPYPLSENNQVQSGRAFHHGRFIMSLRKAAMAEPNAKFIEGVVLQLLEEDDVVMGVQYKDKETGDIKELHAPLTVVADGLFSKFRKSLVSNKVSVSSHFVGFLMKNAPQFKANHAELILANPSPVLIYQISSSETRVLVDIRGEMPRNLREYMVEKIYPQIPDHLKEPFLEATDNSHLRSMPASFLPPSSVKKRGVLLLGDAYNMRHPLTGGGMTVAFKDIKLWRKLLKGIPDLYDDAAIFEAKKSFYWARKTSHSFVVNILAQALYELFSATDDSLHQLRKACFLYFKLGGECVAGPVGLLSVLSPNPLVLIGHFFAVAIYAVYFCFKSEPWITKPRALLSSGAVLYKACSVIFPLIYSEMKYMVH
UniProt P43307: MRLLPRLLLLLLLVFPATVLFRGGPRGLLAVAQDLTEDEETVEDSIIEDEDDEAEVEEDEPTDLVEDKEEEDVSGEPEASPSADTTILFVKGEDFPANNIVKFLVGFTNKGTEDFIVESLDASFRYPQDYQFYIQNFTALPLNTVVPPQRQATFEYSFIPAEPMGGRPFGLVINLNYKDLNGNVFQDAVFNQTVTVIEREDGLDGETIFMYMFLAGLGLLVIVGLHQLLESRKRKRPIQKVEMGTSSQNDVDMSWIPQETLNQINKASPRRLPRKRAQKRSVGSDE
UniProt P09132: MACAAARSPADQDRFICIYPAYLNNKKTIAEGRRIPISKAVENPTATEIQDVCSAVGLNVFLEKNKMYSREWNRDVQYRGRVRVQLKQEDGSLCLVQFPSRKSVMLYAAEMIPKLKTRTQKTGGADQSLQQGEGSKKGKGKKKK
UniProt Q13586, whole entry, looked up: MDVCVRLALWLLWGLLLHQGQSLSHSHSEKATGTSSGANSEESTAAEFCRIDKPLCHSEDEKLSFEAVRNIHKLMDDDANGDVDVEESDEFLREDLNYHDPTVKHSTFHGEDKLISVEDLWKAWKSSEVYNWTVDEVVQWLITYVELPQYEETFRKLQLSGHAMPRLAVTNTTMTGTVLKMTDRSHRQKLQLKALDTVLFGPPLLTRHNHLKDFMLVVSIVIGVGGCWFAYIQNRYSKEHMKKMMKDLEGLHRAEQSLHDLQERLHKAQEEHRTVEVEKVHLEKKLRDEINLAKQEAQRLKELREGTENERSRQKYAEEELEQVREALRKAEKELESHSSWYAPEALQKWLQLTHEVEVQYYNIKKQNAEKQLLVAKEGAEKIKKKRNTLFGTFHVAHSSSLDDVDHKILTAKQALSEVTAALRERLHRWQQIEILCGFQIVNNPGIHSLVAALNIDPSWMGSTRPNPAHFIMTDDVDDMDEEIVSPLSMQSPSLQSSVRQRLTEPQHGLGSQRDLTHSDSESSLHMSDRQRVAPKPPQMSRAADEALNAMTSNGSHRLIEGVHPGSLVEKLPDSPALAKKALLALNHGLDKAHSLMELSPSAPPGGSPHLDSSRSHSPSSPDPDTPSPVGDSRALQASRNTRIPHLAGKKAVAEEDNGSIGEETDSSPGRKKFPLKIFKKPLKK
UniProt Q8NCJ5: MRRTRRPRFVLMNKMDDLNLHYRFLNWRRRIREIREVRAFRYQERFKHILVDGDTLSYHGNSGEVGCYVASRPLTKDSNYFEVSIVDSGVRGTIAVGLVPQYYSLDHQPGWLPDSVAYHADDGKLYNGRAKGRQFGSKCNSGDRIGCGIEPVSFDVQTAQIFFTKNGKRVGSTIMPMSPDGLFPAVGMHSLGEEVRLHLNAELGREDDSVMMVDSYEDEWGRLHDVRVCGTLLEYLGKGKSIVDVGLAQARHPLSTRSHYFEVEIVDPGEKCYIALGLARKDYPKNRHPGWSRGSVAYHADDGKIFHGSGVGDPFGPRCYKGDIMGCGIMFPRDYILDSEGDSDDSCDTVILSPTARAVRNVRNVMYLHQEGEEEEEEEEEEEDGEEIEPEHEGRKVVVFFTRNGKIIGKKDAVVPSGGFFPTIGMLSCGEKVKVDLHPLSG
UniProt Q8N0Z3: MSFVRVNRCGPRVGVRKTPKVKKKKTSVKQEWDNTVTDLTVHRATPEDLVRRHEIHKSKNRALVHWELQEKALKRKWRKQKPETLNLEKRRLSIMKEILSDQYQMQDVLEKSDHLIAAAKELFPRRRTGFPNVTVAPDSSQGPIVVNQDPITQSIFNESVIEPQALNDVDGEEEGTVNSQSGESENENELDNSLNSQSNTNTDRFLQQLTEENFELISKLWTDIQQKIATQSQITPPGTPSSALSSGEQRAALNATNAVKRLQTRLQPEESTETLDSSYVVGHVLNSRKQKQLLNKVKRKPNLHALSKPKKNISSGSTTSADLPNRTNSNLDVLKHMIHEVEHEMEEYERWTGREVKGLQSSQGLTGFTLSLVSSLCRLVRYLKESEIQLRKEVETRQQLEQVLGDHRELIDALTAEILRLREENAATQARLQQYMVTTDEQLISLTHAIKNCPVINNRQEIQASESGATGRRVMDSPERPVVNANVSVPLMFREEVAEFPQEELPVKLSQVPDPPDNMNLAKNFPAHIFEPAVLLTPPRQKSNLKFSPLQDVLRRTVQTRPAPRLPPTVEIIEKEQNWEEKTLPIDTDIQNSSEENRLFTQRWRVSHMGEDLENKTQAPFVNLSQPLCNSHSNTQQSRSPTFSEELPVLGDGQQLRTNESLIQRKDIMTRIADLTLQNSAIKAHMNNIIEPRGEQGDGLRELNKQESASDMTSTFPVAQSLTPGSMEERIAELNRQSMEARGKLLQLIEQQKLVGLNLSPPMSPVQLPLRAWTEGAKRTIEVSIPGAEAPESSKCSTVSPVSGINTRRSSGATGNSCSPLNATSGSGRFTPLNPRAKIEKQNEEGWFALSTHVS
UniProt Q92502: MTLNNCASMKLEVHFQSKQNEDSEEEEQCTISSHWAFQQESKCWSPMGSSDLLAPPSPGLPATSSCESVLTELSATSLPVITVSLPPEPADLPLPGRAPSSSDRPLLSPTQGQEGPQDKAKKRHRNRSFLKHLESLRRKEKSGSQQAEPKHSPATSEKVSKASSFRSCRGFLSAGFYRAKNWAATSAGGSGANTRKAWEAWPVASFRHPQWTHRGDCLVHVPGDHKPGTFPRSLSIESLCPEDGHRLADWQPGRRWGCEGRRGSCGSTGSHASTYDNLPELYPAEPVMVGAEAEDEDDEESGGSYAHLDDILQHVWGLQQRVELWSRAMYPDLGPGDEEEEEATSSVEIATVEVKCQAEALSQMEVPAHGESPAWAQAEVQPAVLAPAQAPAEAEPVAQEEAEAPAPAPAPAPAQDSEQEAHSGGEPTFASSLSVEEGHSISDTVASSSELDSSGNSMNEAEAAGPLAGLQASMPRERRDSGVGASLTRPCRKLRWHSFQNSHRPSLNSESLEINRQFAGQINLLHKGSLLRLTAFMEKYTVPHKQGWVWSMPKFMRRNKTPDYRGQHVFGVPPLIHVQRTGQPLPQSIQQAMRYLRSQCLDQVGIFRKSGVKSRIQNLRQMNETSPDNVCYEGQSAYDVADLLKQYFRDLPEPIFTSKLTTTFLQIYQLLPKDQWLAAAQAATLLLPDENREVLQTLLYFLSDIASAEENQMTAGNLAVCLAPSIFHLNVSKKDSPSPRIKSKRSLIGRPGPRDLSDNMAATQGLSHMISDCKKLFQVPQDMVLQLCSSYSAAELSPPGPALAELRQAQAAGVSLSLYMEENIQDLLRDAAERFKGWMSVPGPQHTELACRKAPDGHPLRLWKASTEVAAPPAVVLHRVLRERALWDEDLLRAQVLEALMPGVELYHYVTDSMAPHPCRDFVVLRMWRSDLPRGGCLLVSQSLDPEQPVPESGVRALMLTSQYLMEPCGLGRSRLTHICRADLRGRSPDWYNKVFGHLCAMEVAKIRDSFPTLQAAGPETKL
UniProt Q8IZP2: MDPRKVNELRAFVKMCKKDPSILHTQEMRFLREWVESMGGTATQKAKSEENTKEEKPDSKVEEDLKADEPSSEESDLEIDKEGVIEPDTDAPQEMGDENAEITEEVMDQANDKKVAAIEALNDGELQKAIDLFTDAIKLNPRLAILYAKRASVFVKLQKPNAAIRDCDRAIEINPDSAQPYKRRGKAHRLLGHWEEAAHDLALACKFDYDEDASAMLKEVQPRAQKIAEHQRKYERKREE
UniProt Q9C0H9: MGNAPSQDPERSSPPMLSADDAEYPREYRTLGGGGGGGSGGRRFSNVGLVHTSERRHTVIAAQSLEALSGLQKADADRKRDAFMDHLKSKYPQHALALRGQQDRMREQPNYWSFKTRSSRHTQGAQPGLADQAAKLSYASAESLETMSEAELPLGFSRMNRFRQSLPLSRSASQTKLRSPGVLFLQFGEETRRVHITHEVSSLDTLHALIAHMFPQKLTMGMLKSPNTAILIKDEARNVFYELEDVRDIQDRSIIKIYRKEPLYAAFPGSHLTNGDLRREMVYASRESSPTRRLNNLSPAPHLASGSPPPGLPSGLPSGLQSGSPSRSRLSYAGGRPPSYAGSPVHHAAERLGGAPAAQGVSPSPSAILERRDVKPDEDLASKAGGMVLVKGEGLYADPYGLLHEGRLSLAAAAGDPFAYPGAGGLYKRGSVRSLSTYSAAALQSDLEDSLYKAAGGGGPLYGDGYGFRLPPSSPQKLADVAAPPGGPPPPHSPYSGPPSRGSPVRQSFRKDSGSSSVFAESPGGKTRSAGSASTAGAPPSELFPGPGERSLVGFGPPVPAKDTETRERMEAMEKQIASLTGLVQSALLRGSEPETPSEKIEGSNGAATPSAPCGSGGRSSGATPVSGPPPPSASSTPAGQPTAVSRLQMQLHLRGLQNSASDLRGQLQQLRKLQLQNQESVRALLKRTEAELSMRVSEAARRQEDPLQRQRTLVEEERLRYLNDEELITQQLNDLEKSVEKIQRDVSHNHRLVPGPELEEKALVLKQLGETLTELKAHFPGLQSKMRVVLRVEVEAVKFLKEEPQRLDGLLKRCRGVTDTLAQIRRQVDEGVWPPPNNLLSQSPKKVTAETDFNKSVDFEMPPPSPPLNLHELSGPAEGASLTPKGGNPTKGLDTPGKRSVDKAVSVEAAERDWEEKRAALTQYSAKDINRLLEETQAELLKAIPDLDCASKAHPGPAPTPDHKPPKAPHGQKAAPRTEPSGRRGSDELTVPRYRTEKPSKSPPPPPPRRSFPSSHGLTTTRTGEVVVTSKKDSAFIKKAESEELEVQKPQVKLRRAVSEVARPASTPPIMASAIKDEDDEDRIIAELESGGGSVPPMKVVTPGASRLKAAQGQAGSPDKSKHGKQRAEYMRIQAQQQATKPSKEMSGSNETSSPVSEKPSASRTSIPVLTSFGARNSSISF

[1] = compound: Cc1nc(Nc2n[nH]c3c2CN(C(=O)N[C@H](CN(C)C)c2ccccc2)C3(C)C)c2sccc2n1
Procedure, shortened: as §1

dasatinib = compound: Cc1nc(Nc2ncc(C(=O)Nc3c(C)cccc3Cl)s2)cc(N2CCN(CCO)CC2)n1 [dasatinib]
Procedure, shortened: as §1

[2] = compound: Cc1ncc(-c2ccnc(Nc3ccc(S(C)(=O)=O)cc3)n2)n1C(C)C
Procedure, shortened: as §1

[3] = compound: Cn1cc(-c2ccc3c(c2)CCN3C(=O)Cc2cccc(C(F)(F)F)c2)c2c(N)ncnc21
Procedure, shortened: as §1

quisinostat = compound: Cn1cc(CNCC2CCN(c3ncc(C(=O)NO)cn3)CC2)c2ccccc21 [quisinostat]
Procedure, shortened: as §1

tipifarnib = compound: Cn1cncc1[C@@](N)(c1ccc(Cl)cc1)c1ccc2c(c1)c(-c1cccc(Cl)c1)cc(=O)n2C [tipifarnib]
Procedure, shortened: as §1

[4] = compound: NC(=O)Nc1cc(-c2cccc(F)c2)sc1C(=O)N[C@H]1CCCNC1
Procedure, shortened: as §1

[5] = compound: NC(=O)c1cnc(N[C@@H]2CCCC[C@@H]2N)nc1Nc1cccc(-n2nccn2)c1
Procedure, shortened: as §1

[6] = compound: NC1(c2ccc(-c3nc4ccn5c(=O)[nH]nc5c4cc3-c3ccccc3)cc2)CCC1
Procedure, shortened: as §1

[7] = compound: NCC(=O)Nc1ccc(-n2nc(C(F)(F)F)cc2-c2ccc3c(ccc4ccccc43)c2)cc1
Procedure, shortened: as §1

vorinostat = compound: O=C(CCCCCCC(=O)Nc1ccccc1)NO [vorinostat]
Procedure, shortened: as §1

silmitasertib = compound: O=C(O)c1ccc2c(c1)nc(Nc1cccc(Cl)c1)c1ccncc12 [silmitasertib]
Procedure, shortened: as §1

[8] = compound: O=C1NC(=O)C(c2cnc3ccccn23)=C1c1cn2c3c(cc(F)cc13)CN(C(=O)N1CCCCC1)CC2
Procedure, shortened: as §1

entospletinib = compound: c1cn2cc(-c3ccc4cn[nH]c4c3)nc(Nc3ccc(N4CCOCC4)cc3)c2n1 [entospletinib]
Procedure, shortened: as §1

Measured: log2 fold change

STAU2 (UniProt Q9NUL3)
inactive: nilotinib 0.004 | [1] -0.005 | dasatinib -0.005 | [2] 0.027 | [3] 0.027 | quisinostat -0.171 | tipifarnib -0.03 | [4] 0.065 | [5] 0.003 | [6] -0.08 | [7] 0.11 | vorinostat -0.003 | silmitasertib -0.028 | [8] -0.078 | entospletinib -0.033

SRRM1 (UniProt Q8IYB3)
inactive: nilotinib 0.015 | [1] 0.008 | dasatinib 0.048 | [2] 0.031 | [3] 0.029 | quisinostat 0.147 | tipifarnib 0.011 | [4] -0.034 | [5] 0.012 | [6] 0.036 | [7] -0.02 | vorinostat 0.122 | silmitasertib -0.022 | [8] -0.011 | entospletinib -0.007

SPPL2B (UniProt Q8TCT7)
inactive: nilotinib -0.002 | [1] -0.008 | dasatinib -0.038 | [2] 0.026 | [3] 0.022 | quisinostat -0.065 | tipifarnib 0.004 | [4] 0.061 | [5] 0.015 | [6] 0.048 | [7] -0.021 | vorinostat 0.023 | silmitasertib 0.015 | [8] -0.03 | entospletinib -0.001

STAT3 isoform 3 (UniProt P40763)
inactive: nilotinib -0.051 | [1] 0.028 | dasatinib -0.038 | [2] -0.066 | [3] -0.079 | quisinostat 0.012 | tipifarnib -0.031 | [4] 0.022 | [5] -0.072 | [6] 0.095 | [7] 0.151 | vorinostat -0.195 | silmitasertib -0.067 | [8] 0.025 | entospletinib -0.055

SSR4 (UniProt P51571)
inactive: nilotinib 0.008 | [1] -0.004 | dasatinib -0.03 | [2] -0.009 | [3] -0.025 | quisinostat 0.043 | tipifarnib -0.017 | [4] 0.016 | [5] -0.005 | [6] 0.013 | [7] -0.006 | vorinostat 0.11 | silmitasertib -0.013 | [8] -0.003 | entospletinib 0.011

SPRYD4 (UniProt Q8WW59)
inactive: nilotinib -0.015 | [1] 0.004 | dasatinib -0.007 | [2] 0.004 | [3] 0.005 | quisinostat 0.001 | tipifarnib 0.01 | [4] -0.022 | [5] 0.027 | [6] -0.017 | [7] -0.003 | vorinostat 0.097 | silmitasertib -0.028 | [8] -0.033 | entospletinib -0.013

SRSF5 (UniProt Q13243)
inactive: nilotinib -0.014 | [1] 0.025 | dasatinib 0.028 | [2] -0.015 | [3] -0.008 | quisinostat -0.109 | tipifarnib 0.001 | [4] 0.009 | [5] 0.054 | [6] 0.039 | [7] 0.029 | vorinostat 0.065 | silmitasertib -0.01 | [8] 0.008 | entospletinib -0.015

SQLE (UniProt Q14534)
inactive: nilotinib 0.082 | [1] 0.014 | dasatinib -0.09 | [2] -0.039 | [3] 0.024 | quisinostat 0.191 | tipifarnib 0.018 | [4] -0.014 | [5] -0.032 | [6] -0.034 | [7] 0.01 | vorinostat 0.103 | silmitasertib -0.056 | [8] -0.042 | entospletinib 0.029

SPECC1 (UniProt Q5M775)
inactive: nilotinib -0.035 | [1] -0.037 | dasatinib -0.038 | [2] -0.032 | [3] -0.007 | quisinostat -0.067 | tipifarnib 0.036 | [4] 0.019 | [5] 0.045 | [6] 0.038 | [7] -0.02 | vorinostat 0 | silmitasertib -0.022 | [8] -0.028 | entospletinib 0

SSR1 (UniProt P43307)
inactive: nilotinib 0.027 | [1] -0.053 | dasatinib -0.012 | [2] -0.055 | [3] 0.002 | quisinostat -0.079 | tipifarnib -0.072 | [4] 0.004 | [5] -0.022 | [6] 0.001 | [7] -0.051 | vorinostat 0.034 | silmitasertib 0.038 | [8] -0.015 | entospletinib -0.003

SQSTM1 (UniProt Q13501)
inactive: nilotinib 0.006 | [1] 0.028 | dasatinib 0.021 | [2] 0.012 | [3] -0.014 | quisinostat -0.005 | tipifarnib 0.021 | [4] 0.042 | [5] 0.007 | [6] 0.02 | [7] 0.05 | vorinostat -0.061 | silmitasertib -0.028 | [8] 0.012 | entospletinib -0.024

SPAST (UniProt Q9UBP0)
inactive: nilotinib -0.013 | [1] -0.007 | dasatinib -0.009 | [2] -0.047 | [3] 0.066 | quisinostat -0.049 | tipifarnib 0.032 | [4] 0.047 | [5] 0.011 | [6] 0.018 | [7] 0.036 | vorinostat -0.267 | silmitasertib 0.001 | [8] -0.04 | entospletinib 0.031

SRP19 (UniProt P09132)
inactive: nilotinib 0.016 | [1] -0.018 | dasatinib -0.061 | [2] -0.01 | [3] 0.017 | quisinostat -0.032 | tipifarnib -0.066 | [4] 0.052 | [5] -0.01 | [6] -0.035 | [7] 0.033 | vorinostat -0.137 | silmitasertib 0.082 | [8] 0.05 | entospletinib 0.031

SRPK2 isoform 2 (UniProt P78362)
inactive: nilotinib -0.005 | [1] 0.077 | dasatinib 0.004 | [2] -0.002 | [3] -0.004 | quisinostat -0.09 | tipifarnib 0.001 | [4] 0.119 | [5] 0.006 | [6] -0.034 | [7] -0.007 | vorinostat -0.028 | silmitasertib 0.131 | [8] -0.008 | entospletinib 0.002

STIM1 (UniProt Q13586)
inactive: nilotinib -0.031 | [1] -0.019 | dasatinib -0.03 | [2] 0.001 | [3] -0.027 | quisinostat 0.023 | tipifarnib -0.012 | [4] 0.009 | [5] 0 | [6] -0.031 | [7] 0.026 | vorinostat 0.126 | silmitasertib -0.01 | [8] 0.018 | entospletinib -0.025

SPTBN2 (UniProt O15020)
inactive: nilotinib -0.043 | [1] -0.004 | dasatinib 0.02 | [2] 0.029 | [3] 0.014 | quisinostat 0.077 | tipifarnib 0.073 | [4] 0.005 | [5] 0.007 | [6] 0.005 | [7] -0.037 | vorinostat -0.156 | silmitasertib -0.02 | [8] -0.016 | entospletinib 0.012

STAB1 (UniProt Q9NY15)
inactive: quisinostat -0.522 | [4] -0.368 | [5] 0.075 | [6] -0.024 | vorinostat 0.442 | silmitasertib -0.002 | [8] 0.032

SPRYD3 (UniProt Q8NCJ5)
inactive: quisinostat -0.11 | [4] 0.21 | [6] -0.063 | vorinostat -0.428 | silmitasertib 0.134 | [8] 0.061

SPICE1 (UniProt Q8N0Z3)
inactive: nilotinib 0.048 | [1] -0.321 | [2] -0.392 | tipifarnib 0.103 | [6] -0.028 | [7] -0.264 | vorinostat -0.27 | silmitasertib 0.298 | entospletinib 0.198

SPIN4 (UniProt Q56A73)
inactive: [7] -0.298

STARD8 isoform 2 (UniProt Q92502)
inactive: dasatinib 0.066 | [3] 0.009 | quisinostat 0.234 | [4] -0.021 | [8] -0.065 | entospletinib 0.064

2 consecutive records out of the list so far:
SPIN4 (UniProt Q56A73)
inactive: [7] -0.298

STARD8 isoform 2 (UniProt Q92502)
inactive: dasatinib 0.066 | [3] 0.009 | quisinostat 0.234 | [4] -0.021 | [8] -0.065 | entospletinib 0.064

Further entries:

ST13P4 (UniProt Q8IZP2)
inactive: [6] -0.011 | [7] 0.131 | vorinostat -0.216 | silmitasertib 0.034

SPTAN1 isoform 3 (UniProt Q13813)
inactive: quisinostat -0.135 | [4] 0.071 | [7] -0.036 | [8] -0.074 | entospletinib -0.011

2 records picked at random from those above:
SPTAN1 isoform 3 (UniProt Q13813)
inactive: quisinostat -0.135 | [4] 0.071 | [7] -0.036 | [8] -0.074 | entospletinib -0.011

STARD8 isoform 2 (UniProt Q92502)
inactive: dasatinib 0.066 | [3] 0.009 | quisinostat 0.234 | [4] -0.021 | [8] -0.065 | entospletinib 0.064

Following part.

SREBF1 isoform 4 (UniProt P36956)
inactive: dasatinib -0.004 | [3] 0.073 | quisinostat -0.049 | [4] 0.083 | [5] -0.14 | [6] -0.178 | vorinostat 0.099 | silmitasertib 0.027 | [8] 0.06

SRCIN1 (UniProt Q9C0H9)
inactive: nilotinib 0.29 | [1] 0.096 | [2] 0.177 | tipifarnib 0.082 | [5] -0.026 | [6] -0.223 | vorinostat -0.211 | silmitasertib -0.062 | entospletinib -0.055

SRC isoform 2 (UniProt P12931)
inactive: [3] -0.023 | [5] 0.015 | [6] 0.012 | vorinostat 0.073 | silmitasertib -0.069 | entospletinib -0.111

SRGN (UniProt P10124)
inactive: dasatinib 0.003 | [3] -0.062 | quisinostat -0.026 | [4] 0 | [5] 0 | [6] -0.086 | [7] -0.073 | vorinostat 0.132 | silmitasertib -0.123 | [8] -0.087 | entospletinib -0.013

Source: the supplement of paper PMC10849652
